Experiment [1] concerns the target T1, Flag-Hpo (Flag-tagged Drosophila Hippo, from UAS-Flag-Hpo) (Drosophila melanogaster) (UniProt Q8T0S6).
T1 sequence: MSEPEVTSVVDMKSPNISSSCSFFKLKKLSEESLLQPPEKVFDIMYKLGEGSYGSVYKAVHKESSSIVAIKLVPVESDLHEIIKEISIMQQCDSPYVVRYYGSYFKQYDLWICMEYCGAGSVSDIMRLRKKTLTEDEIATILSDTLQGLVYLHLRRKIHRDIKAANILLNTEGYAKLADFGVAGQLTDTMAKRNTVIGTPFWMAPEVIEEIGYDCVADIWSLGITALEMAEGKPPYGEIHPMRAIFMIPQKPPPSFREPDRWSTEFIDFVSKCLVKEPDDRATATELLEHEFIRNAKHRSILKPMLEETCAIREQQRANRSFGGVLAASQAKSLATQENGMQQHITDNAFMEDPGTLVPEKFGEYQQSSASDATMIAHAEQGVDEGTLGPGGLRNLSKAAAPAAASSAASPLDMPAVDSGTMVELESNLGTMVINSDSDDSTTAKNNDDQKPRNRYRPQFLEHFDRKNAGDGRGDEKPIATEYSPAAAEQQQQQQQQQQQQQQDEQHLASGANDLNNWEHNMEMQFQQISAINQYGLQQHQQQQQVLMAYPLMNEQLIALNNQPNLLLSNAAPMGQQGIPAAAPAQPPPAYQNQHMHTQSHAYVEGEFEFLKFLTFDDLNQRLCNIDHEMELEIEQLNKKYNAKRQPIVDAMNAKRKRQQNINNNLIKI
Description: co-IP.

Amino acid sequences for entries named in this document (tags omitted). A change or cut given only in a name is not applied to a line headed by its entry.
UniProt Q9VKR0: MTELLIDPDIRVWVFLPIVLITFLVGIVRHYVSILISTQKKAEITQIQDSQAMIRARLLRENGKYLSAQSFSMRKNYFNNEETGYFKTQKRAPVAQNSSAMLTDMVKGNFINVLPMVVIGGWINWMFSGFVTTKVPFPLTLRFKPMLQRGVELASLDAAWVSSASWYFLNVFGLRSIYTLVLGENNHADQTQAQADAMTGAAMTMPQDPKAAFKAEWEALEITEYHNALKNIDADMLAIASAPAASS

In experiment [2] the target is T1, Flag-Hpo (Flag-tagged Drosophila Hippo, from UAS-Flag-Hpo) (Drosophila melanogaster). Kind of experiment: co-IP. The source holds these as a separate data set.

Where two headings read alike, the source gives them in different places. Results are given in words; binding and its absence hold for the method and conditions named. In cells and extracts the contact can be indirect. A result given as binding can be weak or reduced; the word gives no strength. Where a sequence is shown, tags or fusion partners need not be part of it.

Binding data for two substances are collected here from article doi:10.1101/2022.01.25.477727.

Consider “EMC1-GFP (GFP-tagged Drosophila EMC1, from UAS-EMC1-GFP)”, for which the binding entry in experiment [1] and in experiment [2] was “binds” in each case.
With “EMC3-Myc (Myc-tagged Drosophila EMC3, from UAS-EMC3-MYC) (from UniProt Q9VKR0)”, in experiment [2], the binding entry is “binds”.
